# Measured values from PubChem BioAssay AID1117319 (Southern Research Institute, 2015).
# The chains behind the UniProt entries cited, without tags or fusion partners. Where a name states a change or a piece, a line headed by the entry shows the natural chain unless it says otherwise.
# UniProt P69720: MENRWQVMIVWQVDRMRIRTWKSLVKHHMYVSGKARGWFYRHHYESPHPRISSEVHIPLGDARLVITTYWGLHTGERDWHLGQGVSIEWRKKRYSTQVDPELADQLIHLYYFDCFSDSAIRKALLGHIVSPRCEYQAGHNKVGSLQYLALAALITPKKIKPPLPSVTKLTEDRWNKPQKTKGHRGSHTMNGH
# UniProt P69721: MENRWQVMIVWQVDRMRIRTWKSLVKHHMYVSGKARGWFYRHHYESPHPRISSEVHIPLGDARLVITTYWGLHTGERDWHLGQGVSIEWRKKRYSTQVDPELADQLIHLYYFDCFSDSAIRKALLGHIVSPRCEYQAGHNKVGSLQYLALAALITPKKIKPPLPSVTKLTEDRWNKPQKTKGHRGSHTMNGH
# UniProt P69722: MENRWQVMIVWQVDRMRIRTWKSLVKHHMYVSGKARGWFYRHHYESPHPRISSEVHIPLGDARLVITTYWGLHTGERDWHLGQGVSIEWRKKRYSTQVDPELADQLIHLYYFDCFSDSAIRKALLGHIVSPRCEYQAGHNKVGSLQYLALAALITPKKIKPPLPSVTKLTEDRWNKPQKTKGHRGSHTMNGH
# UniProt P69723: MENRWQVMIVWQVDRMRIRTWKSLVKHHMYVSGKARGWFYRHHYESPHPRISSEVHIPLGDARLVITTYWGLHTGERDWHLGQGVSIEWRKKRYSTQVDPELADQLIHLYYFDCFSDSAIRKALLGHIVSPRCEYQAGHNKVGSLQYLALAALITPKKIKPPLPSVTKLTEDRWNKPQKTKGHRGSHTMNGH
# UniProt Q9HC16: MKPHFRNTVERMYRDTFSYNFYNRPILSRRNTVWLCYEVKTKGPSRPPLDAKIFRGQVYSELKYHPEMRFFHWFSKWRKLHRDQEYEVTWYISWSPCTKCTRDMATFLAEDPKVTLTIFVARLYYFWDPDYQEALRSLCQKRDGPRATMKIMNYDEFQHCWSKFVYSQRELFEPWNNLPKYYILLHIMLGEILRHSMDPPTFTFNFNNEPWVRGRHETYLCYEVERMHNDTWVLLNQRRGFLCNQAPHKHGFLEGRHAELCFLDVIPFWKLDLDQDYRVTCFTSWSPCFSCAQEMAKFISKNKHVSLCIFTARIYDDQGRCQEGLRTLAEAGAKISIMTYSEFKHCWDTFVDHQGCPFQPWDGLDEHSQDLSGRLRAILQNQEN
# Hit rate of the full screen: of about 260,000 compounds, about 1,500 (0.58%) were called active. The inconclusive results got no clear call from the source; some entries with a clear call stand among them for comparison.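 The calls were made as follows: active = inhibition above a set limit at one or more doses, reproduced on every date tested; inconclusive = results disagree between test dates, or hit never tested in dose response; inactive = the rest.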
# Molecular target: Virion infectivity factor (Human immunodeficiency virus type 1 group M subtype B (isolate BH10)) + Virion infectivity factor (Human immunodeficiency virus type 1 group M subtype B (isolate BRU/LAI)) + Virion infectivity factor (Human immunodeficiency virus type 1 group M subtype B (isolate PCV12)) + Virion infectivity factor (Human immunodeficiency virus type 1 group M subtype B (isolate HXB2)) + DNA dC->dU-editing enzyme APOBEC-3G (Homo sapiens) (UniProt P69720+P69721+P69722+P69723+Q9HC16)
# Experiment: inhibitors of Vif binding to APOBEC3G peptide, primary screen, biochemical, TR-FRET, GST-Vif 1-94, biotin-A3G peptide, dose response retest (AID 1117319);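 also: Vif residues 1-94 fused to GST binding biotinylated APOBEC3G peptide 110-148; 0% = full assay without inhibitor and 100% = GST in place of GST-Vif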
# Conditions: active compounds read high
row,SMILES,inhibition
1,CC(=O)C1=C(C)N(Cc2ccccc2)C(=O)N[C@H]1c1cccs1,inconclusive: 42.8%
2,CCn1cc(S(=O)(=O)Nc2cc(F)ccc2C)cn1,inconclusive: 53.3%
3,O=C1c2oc3ccccc3c(=O)c2C(c2cccnc2)N1CCCN1CCOCC1 (centres undefined),inconclusive: 16.8%
4,CCOC(=O)C1CCN(C(=O)CSc2cc(=O)n(CC)c3ccccc23)CC1,inconclusive: 44.1%
5,COc1ccc(C2C(C(=O)N3CCOCC3)=C(C)NC3=C2C(=O)CC(C)(C)C3)cc1O (centres undefined),inconclusive: 51.5%
6,Cc1nn(Cc2ccc(Cl)cc2)c(C)c1NC(=O)c1cc(-c2ccco2)on1,inconclusive: 42.9%
7,CCC(NC(C)C)C(O)c1ccc(O)c(O)c1 (centres undefined),inactive: -1.98%
8,COc1ccc(Sc2ccc(/C=C3\C(=O)NN(c4ccccc4)C3=O)o2)cc1,inactive: 27.1%
9,O=C(CCl)Nc1cc(SCC(O)CO)cc([N+](=O)[O-])c1 (centres undefined),inconclusive: 37.8%
10,COc1cccc2cc(C(=O)c3ccccc3)oc12,inactive: -4.51%
11,CC(C)N1CCN(Cc2ccc(C#CC(C)(C)O)cc2)CC1CCO (centres undefined),inconclusive: 52.1%
12,Cc1nnc(SCCC(C)C)[nH]c1=O,inconclusive: 56.6%
13,O=C(c1c(F)cccc1F)N1CCCC1,inconclusive: 36.1%
14,Cn1cc(/C=N/NC(=O)COc2ccccc2[N+](=O)[O-])c2ccccc21,inconclusive: 45.7%
15,N#CC1=C(N)N(c2ccc(Br)cc2)C2=C(C(=O)CCC2)C1c1cccnc1 (centres undefined),inconclusive: 58.3%
16,Cc1ccc(NC(=O)c2cc(N3C(=O)C=CC3=O)ccc2N2CCOCC2)cc1Cl,inconclusive: 34%
17,O=C(CSc1nnc(-c2cccs2)n1CC1CCCO1)c1cc2ccccc2o1 (centres undefined),inconclusive: 46.1%
18,Cc1ccc(NC(=S)NC2CCCCC2)cc1S(=O)(=O)N(C)C,inconclusive: 59.2%
19,Cn1c(=O)c2c(ncn2CC(=O)Nc2nc(-c3ccc(F)c(F)c3)cs2)n(C)c1=O,inconclusive: 41.8%
20,Cc1ccc(C(=O)Nc2cccc([N+](=O)[O-])c2)cc1S(=O)(=O)Nc1ccc(NC(=O)c2ccccc2)cc1,inconclusive: 46%

row,SMILES,inhibition
1,O=C(N/N=C/c1ccc([N+](=O)[O-])o1)c1cc2ccccc2o1,inconclusive: 35.7%
2,CCOc1ccc(OCc2ccc(C(=O)NN)o2)cc1,inconclusive: 55.3%
3,CN(C)CCNC(=S)NC1CCCCC1,inconclusive: 38.5%
4,O=C(/C=C/c1ccco1)N1CCN(c2ncccn2)CC1,inconclusive: 49.5%
5,Cc1ccc(C(=O)Nc2c(C)cc(-c3ccc(Cl)cc3)oc2=O)cc1,inconclusive: 55.6%
6,Cc1ccc(-c2nc(CSCC(=O)N3CCOCC3)c(C)o2)cc1,inconclusive: 52.6%
7,Cc1nc(SCc2ccccc2)c(C(F)(F)F)c(=O)[nH]1,inconclusive: 41%
8,Cc1nc(C2CCC3C4CCC5=CC(=O)CC[C@]5(C)C4CC[C@]23C)cs1 (some centres undefined),inconclusive: 34.5%
9,C=CCNc1sc(C(=O)c2ccccc2)c(N)c1-c1nc2ccccc2s1,inconclusive: 34.1%
10,CCOc1ccccc1CNC(=O)c1cc2occc2n1C,inconclusive: 60%
11,CCOC(=O)c1cnc2c(cnn2C)c1Cl,inactive: 6.51%
12,CC(NC(=O)c1noc2c1CCCCC2)c1ccccc1 (centres undefined),inconclusive: 27.3%
13,C=CCOn1c(C)c(C(C)=O)c2c3no[n+]([O-])c3ccc21,inconclusive: 40.6%
14,CCOC(=O)c1sc(NC(=O)c2cccc(S(=O)(=O)N3c4ccccc4CC3C)c2)cc1C (centres undefined),inconclusive: 60.5%
15,COCCCn1c(=NC(C)=O)c(C#N)cc2c(=O)n3cccc(C)c3nc21,inconclusive: 43.7%
16,O=C(NCCc1ccccc1)c1ccc(Cl)nc1,inconclusive: 59.9%
17,Cc1ccc(C(=O)CSc2nnc(-c3ccco3)n2C)cc1,inactive: 11.4%
18,Cc1ccc(CN(Cc2ccco2)C(=S)NCC(=O)O)cc1,inconclusive: 33.8%
19,Cc1ccc(C2=NC(=O)/C(=C/c3cc(O)c(O)c(Br)c3)S2)cc1,inconclusive: 61.9%
20,CNc1ccncc1S(=O)(=O)NC,inconclusive: 44.7%

# Retrieved by structure from the list above:
row,SMILES,inhibition
1,O=C(N/N=C/c1ccc([N+](=O)[O-])o1)c1cc2ccccc2o1,inconclusive: 35.7%
18,Cc1ccc(CN(Cc2ccco2)C(=S)NCC(=O)O)cc1,inconclusive: 33.8%
8,Cc1nc(C2CCC3C4CCC5=CC(=O)CC[C@]5(C)C4CC[C@]23C)cs1 (some centres undefined),inconclusive: 34.5%

# Later entries:

row,SMILES,inhibition
1,Oc1c(C=NCc2ccc(F)cc2)[nH]c2ccc(Br)c(Cl)c12,inconclusive: 52.7%
2,COc1cc2[nH]c(=O)n(CCCCCC(=O)NCCCN3CCC(C)CC3)c(=O)c2cc1OC,inconclusive: 34.4%
3,CN(Cc1ccc(Cl)cc1)C(=O)c1ccc(S(=O)(=O)NCc2ccco2)cc1,inconclusive: 38.8%
4,COc1cccc(C(=O)NC2=NCCS2)c1,inconclusive: 53.1%
5,Cc1cc(=O)[nH]c2nnnn12,inconclusive: 36.7%
6,CN(CCCNC(=O)CCCOc1cc(=O)n(C)c2ccccc12)Cc1ccccc1,inactive: 4.88%
7,CC(=O)OC12CC3CC(C1)C(=NO)C(C3)C2,inactive: -2.41%
8,CCOC(=O)C1(Cc2ccccc2)CCN(Cc2csc(C(C)=O)c2)CC1,inconclusive: 45.5%
9,N#CC1=C(N)C2=CCCC[C@H]2[C@H](c2ccc(Br)cc2)C1(C#N)C#N,inactive: 4.38%
10,CCN(CC)S(=O)(=O)c1cccc(NC(=O)COC(=O)/C=C/c2ccco2)c1,inconclusive: 36.1%
11,CCCN1C(=O)/C(=C/c2ccc(C)s2)NC1=S,inactive: 1.31%
12,O=C(Nc1ccccc1)N1CCN(C(=O)Nc2ccccc2)CC1,inconclusive: 44.2%
13,O=c1c(Cl)c(NCc2ccc(F)cc2Cl)cnn1C12CC3CC(CC(C3)C1)C2,inconclusive: 36.1%
14,CN(C)S(=O)(=O)c1cccc(NC(=S)NCc2ccc3c(c2)OCO3)c1,inconclusive: 36%
15,O=C(COc1ccc(Cl)cc1Cl)OCn1nnc2ccccc2c1=O,inconclusive: 48.8%
16,Cc1sc2ncnc(SCC(=O)NC(C)C(C)C)c2c1C (centres undefined),inconclusive: 63.5%
17,CCC1SC(=NC(=O)c2ccc(Cl)c(Cl)c2)NC1=O (centres undefined),inconclusive: 57.1%
18,Nc1nc(=S)[nH]c2c1C1(CCCCC1)Cc1ccccc1-2,inconclusive: 40.8%
19,CCC1CCCCN1C(=O)CSc1nnc(-c2ccco2)o1 (centres undefined),inconclusive: 36.5%

# An excerpt of these results, as tab-separated lines.
row	SMILES	inhibition
7	CC(=O)OC12CC3CC(C1)C(=NO)C(C3)C2	inactive: -2.41%
8	CCOC(=O)C1(Cc2ccccc2)CCN(Cc2csc(C(C)=O)c2)CC1	inconclusive: 45.5%
